No constants are given. Whether binding was seen depends on the method and setting. In cells and extracts the contact can be indirect. Binding calls can cover weak binding; strength is not graded here. For some of these results: Sequences can lack the tags named with a protein.

Common to all, as to test: co-IP; anti-FLAG M2 antibody on protein A-Sepharose; membrane fraction of Y. enterocolitica solubilised with 1% DDM in 50 mM Tris-HCl pH 7.5, 300 mM NaCl, 5 mM EDTA; 4°C overnight; native conditions; immunoblot; strains with the pspA operon under tacp or its native promoter
For test [1], the target named is T1, PspB-3×FLAG (Y. enterocolitica).
T1 sequence: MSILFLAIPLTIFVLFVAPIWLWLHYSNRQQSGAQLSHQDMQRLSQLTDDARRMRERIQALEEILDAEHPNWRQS

In test [2] the target is PspC-3×FLAG (Y. enterocolitica).
Test [3] has as its target YsaC-3×FLAG (Y. enterocolitica).

For PspC (from UniProt A0ACH1C6X0), the binding entry in test [1] was “binds”.
Consider “pIV-His6 mutant isolate 104 (K419I) (E. coli filamentous phage f1)”, for which, in test [1], the binding entry is reported as “no binding”.
Still for that read-out and setting: in the case of pIV-His6 (E. coli filamentous phage f1) it was “binds”.
YsaC-His6 (Y. enterocolitica): the binding entry in test [1] is on record as “binds”.

B1: PilQ-His6 (protein, UniProt P34750 25-714)
chain: DLEKLDVAALPGDRVELKLQFDEPVAAPRGYTIEQPARIALDLPGVQNKLGTKNRELSVGNTRSVTVVEAKDRTRLIINLTALSSYTTRVEGNNLFVVVGNSPAGASVASAAPVKASPAPASYAQPIKPKPYVPAGRAIRNIDFQRGEKGEGNVVIDLSDPTLSPDIQEQGGKIRLDFAKTQLPDALRVRLDVKDFATPVQFVNASAQSDRTSITIEPSGLYDYLVYQTDNRLTVSIKPMTTEDAERRKKDNFAYTGEKLSLNFQDIDVRSVLQLIADFTDLNLVASDTVQGNITLRLQNVPWDQALDLVLKTKGLDKRKLGNVLLVAPADEIAARERQELEAQKQIAELAPLRRELIQVNYAKAADIAKLFQSVTSDGGQEGKEGGRGSITVDDRTNSIIAYQPQERLDELRRIVSQLDIPVRQVMIEARIVEANVGYDKSLGVRWGGAYHKGNWSGYGKDGNIGIKDEDGMNCGPIAGSCTFPTTGTSKSPSPFVDLGAKDATSGIGIGFITDNIILDLQLSAMEKTGNGEIVSQPKVVTSDKETAKILKGSEVPYQEASSSGATSTSFKEAALSLEVTPQITPDNRIIVEVKVTKDAPDYQNMLNGVPPINKNEVNAKILVNDGETIVIGGVFSNEQSKSVEKVPFLGELPYLGRLFRRDTVTDRKNELLVFLTPRIMNNQAIAIGR
As to B1, in test [2], the binding result is recorded as “no binding”.

B2: PspB (protein, UniProt A0ACH1C6W1 1-75)
chain: T1 sequence
Take B2: the binding result in test [3] and in test [2] was “binds” each time.

For the origin of these results see paper PMC5596341.
